Measured values: publication PMC11445491
No constants are given. Whether binding was seen depends on the method and setting. In cells and extracts the contact can be indirect. Some entries that bind do so weakly or less than the wild type.

By UniProt entry, the sequences of proteins in these tests, tags left out. Where a name states a change or a piece, a line headed by the entry shows the natural chain unless it says otherwise. Chains listed by the source or under a name are the forms on record and can include a tag or linker. Residues count along the entry.
TNFR1 wild type in pCS5/3xFLAG (P19438, residues 30-455): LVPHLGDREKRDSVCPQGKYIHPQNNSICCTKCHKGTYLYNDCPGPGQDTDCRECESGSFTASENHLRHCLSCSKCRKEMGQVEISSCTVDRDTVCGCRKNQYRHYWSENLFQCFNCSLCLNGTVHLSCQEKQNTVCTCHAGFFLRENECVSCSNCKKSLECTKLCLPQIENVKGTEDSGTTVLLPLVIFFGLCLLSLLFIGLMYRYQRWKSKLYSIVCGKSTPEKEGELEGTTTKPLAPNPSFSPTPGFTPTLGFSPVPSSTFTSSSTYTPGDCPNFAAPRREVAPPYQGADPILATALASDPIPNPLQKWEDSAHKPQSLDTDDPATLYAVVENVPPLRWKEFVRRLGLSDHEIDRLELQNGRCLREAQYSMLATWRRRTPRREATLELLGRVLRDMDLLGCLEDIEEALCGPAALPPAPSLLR
3xFLAG/TNFR1 Y360/401F, reconstituted in TNFR1 knockdown cells (P19438, form named): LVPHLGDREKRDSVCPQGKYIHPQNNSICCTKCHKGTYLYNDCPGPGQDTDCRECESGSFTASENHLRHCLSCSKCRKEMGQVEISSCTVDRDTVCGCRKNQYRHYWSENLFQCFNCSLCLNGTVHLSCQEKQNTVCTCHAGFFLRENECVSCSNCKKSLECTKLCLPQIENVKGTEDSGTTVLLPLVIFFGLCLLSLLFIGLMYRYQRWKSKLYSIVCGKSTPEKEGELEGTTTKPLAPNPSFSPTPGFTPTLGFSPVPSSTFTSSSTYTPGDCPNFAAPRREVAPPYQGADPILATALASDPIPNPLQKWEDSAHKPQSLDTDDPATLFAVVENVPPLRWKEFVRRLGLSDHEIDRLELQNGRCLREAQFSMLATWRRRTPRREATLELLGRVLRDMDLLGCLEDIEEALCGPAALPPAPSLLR
TNFR1 Y360/401D in pCS5/3xFLAG (P19438, form named): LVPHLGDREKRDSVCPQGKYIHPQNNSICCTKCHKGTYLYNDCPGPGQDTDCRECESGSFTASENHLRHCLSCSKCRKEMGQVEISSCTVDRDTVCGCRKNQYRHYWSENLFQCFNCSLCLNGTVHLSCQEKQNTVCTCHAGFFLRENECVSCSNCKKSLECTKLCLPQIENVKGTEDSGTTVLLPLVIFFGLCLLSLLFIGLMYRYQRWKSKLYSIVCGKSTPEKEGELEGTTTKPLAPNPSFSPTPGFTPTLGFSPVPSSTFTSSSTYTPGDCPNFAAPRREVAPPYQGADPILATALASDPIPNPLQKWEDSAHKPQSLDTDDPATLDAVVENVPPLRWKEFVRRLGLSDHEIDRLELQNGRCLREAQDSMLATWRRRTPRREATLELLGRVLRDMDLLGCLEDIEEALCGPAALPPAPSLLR
TNFR1 Y401D in pCS5/3xFLAG (P19438, form named): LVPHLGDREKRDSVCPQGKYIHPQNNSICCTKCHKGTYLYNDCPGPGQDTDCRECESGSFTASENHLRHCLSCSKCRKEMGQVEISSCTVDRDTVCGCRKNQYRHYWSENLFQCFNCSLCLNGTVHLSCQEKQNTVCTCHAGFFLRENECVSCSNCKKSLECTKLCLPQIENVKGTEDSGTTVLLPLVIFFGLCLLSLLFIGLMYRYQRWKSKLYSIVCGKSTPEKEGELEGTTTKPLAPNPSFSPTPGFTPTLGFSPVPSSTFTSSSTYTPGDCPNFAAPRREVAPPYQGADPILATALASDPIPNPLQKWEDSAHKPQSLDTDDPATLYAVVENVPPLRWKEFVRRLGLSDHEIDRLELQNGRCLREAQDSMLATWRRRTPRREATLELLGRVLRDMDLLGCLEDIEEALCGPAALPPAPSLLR
TNFR1 Y360D in pCS5/3xFLAG (P19438, form named): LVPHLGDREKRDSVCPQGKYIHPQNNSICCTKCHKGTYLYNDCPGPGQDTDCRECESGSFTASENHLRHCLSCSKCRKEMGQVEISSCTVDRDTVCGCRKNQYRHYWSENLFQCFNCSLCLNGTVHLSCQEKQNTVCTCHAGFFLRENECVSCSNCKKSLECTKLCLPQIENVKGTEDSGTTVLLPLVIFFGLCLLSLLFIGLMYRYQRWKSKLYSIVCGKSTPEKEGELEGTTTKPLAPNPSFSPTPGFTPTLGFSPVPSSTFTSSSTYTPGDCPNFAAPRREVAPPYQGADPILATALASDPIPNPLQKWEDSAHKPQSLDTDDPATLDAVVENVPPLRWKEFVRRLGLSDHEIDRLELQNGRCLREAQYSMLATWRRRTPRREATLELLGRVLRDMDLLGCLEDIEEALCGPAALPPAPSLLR
UniProt Q14790: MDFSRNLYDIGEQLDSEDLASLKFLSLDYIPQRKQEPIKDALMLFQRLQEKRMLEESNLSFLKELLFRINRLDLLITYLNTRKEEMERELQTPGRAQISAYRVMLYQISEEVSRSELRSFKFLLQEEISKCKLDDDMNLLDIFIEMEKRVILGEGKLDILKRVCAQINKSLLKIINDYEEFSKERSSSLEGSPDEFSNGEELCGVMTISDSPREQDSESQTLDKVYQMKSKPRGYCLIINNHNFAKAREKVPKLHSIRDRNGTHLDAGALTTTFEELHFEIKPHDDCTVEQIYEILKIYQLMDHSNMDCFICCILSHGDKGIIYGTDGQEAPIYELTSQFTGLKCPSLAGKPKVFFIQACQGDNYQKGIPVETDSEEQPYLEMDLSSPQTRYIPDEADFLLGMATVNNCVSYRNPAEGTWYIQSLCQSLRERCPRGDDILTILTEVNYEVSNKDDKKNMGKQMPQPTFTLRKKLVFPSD

What was measured:
[1] = target: 3xFLAG/TNFR1 Y360/401F, reconstituted in TNFR1 knockdown cells (UniProt P19438); test: co-IP; 3xFLAG/TNFR1 WT, Y360/401D or Y360/401F reconstituted HeLa cells; T/Bi with or without 250 ng/mL EGF for 15 min; anti-FLAG antibodies and protein G agarose
[2] = target: 3xFLAG/TNFR1 WT, reconstituted in TNFR1 knockdown cells (UniProt P19438); test: as above
[3] = target: caspase-8, endogenous (human (endogenous in HT-29, HeLa, Panc-1)) (UniProt Q14790); test: co-IP; HeLa cells, endogenous; T/Bi (complex IIb) or T/C (complex IIa) with or without 250 ng/mL EGF; anti-caspase-8 antibodies and protein G agarose (Fig. 5C; antibody of Fig. S15C not shown)
[4] = target: caspase-8, endogenous (human (endogenous in HT-29, HeLa, Panc-1)) (UniProt Q14790); test: co-IP; HT-29 cells, endogenous complex IIb (T/Bi) and complex IIa (T/C), with or without EGFR inhibitors (Fig. S11D, S13D); precipitating antibody not shown
[5] = target: 3xFLAG/TNFR1 Y360/401F, reconstituted in TNFR1 knockdown cells (UniProt P19438); test: co-IP; 3xFLAG/TNFR1 WT, Y360/401D or Y360/401F reconstituted HT-29 cells; T/Bi/Z with or without 20 μM erlotinib for 30 min; anti-FLAG antibodies and protein G agarose
[6] = target: 3xFLAG/TNFR1 Y360/401D, reconstituted in TNFR1 knockdown cells (UniProt P19438); test: as above
[7] = target: 3xFLAG/TNFR1 WT, reconstituted in TNFR1 knockdown cells (UniProt P19438); test: as above
[8] = target: TNFR1 wild type in pCS5/3xFLAG (UniProt P19438); test: co-IP; TNFR1 WT, Y360D, Y401D and Y360/401D against RIPK1 or TRADD (Fig. S21B, S21C); cells and antibodies not shown
[9] = target: TNFR1 Y360/401D in pCS5/3xFLAG (UniProt P19438); test: as above
[10] = target: TNFR1 Y401D in pCS5/3xFLAG (UniProt P19438); test: as above
[11] = target: TNFR1 Y360D in pCS5/3xFLAG (UniProt P19438); test: as above

Measured: binding

B1: TNFR1 associated death domain protein (TRADD), endogenous (protein, UniProt Q15628 1-312)
chain: MAAGQNGHEEWVGSAYLFVESSLDKVVLSDAYAHPQQKVAVYRALQAALAESGGSPDVLQMLKIHRSDPQLIVQLRFCGRQPCGRFLRAYREGALRAALQRSLAAALAQHSVPLQLELRAGAERLDALLADEERCLSCILAQQPDRLRDEELAELEDALRNLKCGSGARGGDGEVASAPLQPPVPSLSEVKPPPPPPPAQTFLFQGQPVVNRPLSLKDQQTFARSVGLKWRKVGRSLQRGCRALRDPALDSLAYEYEREGLYEQAFQLLRRFVQAEGRRATLQRLVEALEENELTSLAEDLLGLTDPNGGLA
binds: all assays above
